Data from patent US20180011114A1.
Results are given in words; binding and its absence hold for the method and conditions named. Some binding calls cover weakened binding; strength is not graded here. Values belong to the binder of their own block, whether it stands above or below them.

Assays:
anti-FIXa-arm of ACE910 = assay: ELISA, hybridoma culture supernatant
anti-FX-arm of ACE910 = assay: ELISA, hybridoma culture supernatant

binding (anti-FIXa-arm of ACE910): binds
B1: AQ8 (antibody, V domains shown)
VH: EVNLVESGGGLVQPGGSMSLSCAASGFTFTDYYMSWVRQPPGKALEWLALIRNKANGYTTEYSASVKGRFTISRDNSQSILYLQMNALRAEDSATYYCARDSYYSYDGYAMDYWGQGTSVTVSS
VL: DIQMTQSPASLAASVGETITITCQASENIYFSLAWYQQKQGKSPQLLIYNTDSLKDGVPSRFSGSGSGTQYSMKINSMQPEDTATYFCRQSYDFPWTFGGGTKLEIK

binding (anti-FX-arm of ACE910): binds
B2: AJ540 (antibody, V domains shown)
VH: QIQLVQSGPELKKPGESVKISCKASGYTFTDYAMHWVKQVPGKGLKWMGWINTYTGKPTYADDFKGRFVFSLEASASTANLQISNLKNEDTANVFCAREGGGYYWYFDFWGPGTMVTVSS
VL: DIVMTQSPTSMSISVGDRVTMNCKANQNVDFNVDWYQQKTGQSPKLLIYKASNRYTGVPDRFTGSGSGTDFTFTISNMQAEDLAVYYCMQSNSFPLTFGSGTNLEIK
